From PMC5259782, “Allosteric Inhibition of Phosphoenolpyruvate Carboxylases is Determined by a Single Amino Acid Residue in Cyanobacteria” (Scientific Reports, 2017) come the findings set out here.

In the assay the target is T1, SyPEPC (Synechocystis sp. PCC 6803, UniProt P74299).
T1 construct: gene ppc
T1 sequence (P74299 1-1034): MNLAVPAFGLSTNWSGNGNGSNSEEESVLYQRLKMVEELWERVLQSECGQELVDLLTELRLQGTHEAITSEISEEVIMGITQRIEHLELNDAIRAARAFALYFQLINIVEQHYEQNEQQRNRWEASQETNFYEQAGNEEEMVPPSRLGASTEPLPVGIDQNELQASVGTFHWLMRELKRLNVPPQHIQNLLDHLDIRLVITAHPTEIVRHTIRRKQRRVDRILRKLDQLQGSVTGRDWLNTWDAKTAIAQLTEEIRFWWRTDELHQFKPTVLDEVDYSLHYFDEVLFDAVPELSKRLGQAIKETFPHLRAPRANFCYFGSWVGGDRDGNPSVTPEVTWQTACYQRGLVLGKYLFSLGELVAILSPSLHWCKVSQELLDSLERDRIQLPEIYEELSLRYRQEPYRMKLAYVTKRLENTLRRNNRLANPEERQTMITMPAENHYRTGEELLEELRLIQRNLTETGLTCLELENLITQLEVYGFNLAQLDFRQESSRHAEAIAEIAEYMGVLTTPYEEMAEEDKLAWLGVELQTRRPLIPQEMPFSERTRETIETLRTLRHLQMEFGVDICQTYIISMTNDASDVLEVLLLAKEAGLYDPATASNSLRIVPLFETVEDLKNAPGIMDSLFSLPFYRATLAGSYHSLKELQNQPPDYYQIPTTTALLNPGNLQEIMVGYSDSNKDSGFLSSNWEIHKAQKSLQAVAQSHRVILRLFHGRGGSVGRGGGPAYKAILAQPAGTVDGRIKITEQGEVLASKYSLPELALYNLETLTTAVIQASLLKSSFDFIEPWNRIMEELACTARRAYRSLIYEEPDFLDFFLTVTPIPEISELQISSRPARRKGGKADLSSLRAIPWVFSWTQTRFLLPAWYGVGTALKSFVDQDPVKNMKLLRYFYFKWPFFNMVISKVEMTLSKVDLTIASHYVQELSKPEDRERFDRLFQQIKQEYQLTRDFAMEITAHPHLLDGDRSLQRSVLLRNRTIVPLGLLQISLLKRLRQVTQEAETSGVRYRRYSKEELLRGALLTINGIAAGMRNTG
Briefly: malate dehydrogenase-coupled NADH assay, residual activity. It is filed as biochemical. Particulars: read-out: SyPEPC activity (in vitro). An excerpt: malate dehydrogenase-coupled NADH assay, residual activity on SyPEPC

SMILES strings stand for the structures.

Turning to `O=C(O)CC(O)(CC(=O)O)C(=O)O` [citrate], the activity at 1000 µM is 86.1 ± 6.7%.
